Data on 16 molecules can be found in PubChem BioAssay AID2685 (National Center for Advancing Translational Sciences (NCATS), 2010).

Molecules are shown by their SMILES. This is one part of the list. These are further read-outs of the screen, such as a control signal, another cell line or another target. No call is given for them. The list favours compounds with an active or inconclusive main result. The note in brackets gives the kind of curve behind each potency; many fits are weak.

This assay can be described thus: qHTS Assay for Lipid Storage Modulators in Drosophila S3 Cells.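 On cell number change: cells counted by Cell Tracker Red CMTPX staining in the red channel.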 The settings on record: BODIPY lipid droplet fluorescence, 18-24 h; for cell number change: measured here: cell count max response, cells fed with added oleic acid. An outline of the steps: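 Laser-scanning cytometry quantifies lipid droplet accumulation (500–530 nm total intensity; droplet/cell object ratio) in oleic acid-fed (400 uM added) Drosophila S3 cells treated with a concentration series. 20 uM Triacsin C defined 100% inhibition.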
On the technique in general: Quantitative high-throughput screening tests each substance at several concentrations.

Setting [1] is: measured here: cell number channel AC50, cells fed with added oleic acid.
[2] abbreviates: measured here: lipid fluorescence (Fed channel) AC50, cells fed with added oleic acid.

Turning to `COc1ccc(C(CNC(=O)C(C)(C)Oc2ccc(Cl)cc2)N2CCCCC2)cc1` (configuration not stated), the cell number change came out at 52.2%. In addition, the half-maximal activity concentration (AC50) under setting [1] was 29.1 µM [rising, single point]. Also, under setting [2], the AC50 was 29.1 µM [rising, single point].

For the molecule `COc1ccc(C(=O)N2CCN(CCNC(=O)C(=O)Nc3ccc(F)cc3)CC2)cc1OC`, the cell number change is -7.14%. The half-maximal activity concentration (AC50) under setting [2] is 0.58 µM [rising, single point].

In the case of `COc1ccc(CCNC(=O)CCCCC(=O)NCCc2ccc(OC)cc2)cc1`, the cell number change worked out at 17.3%. Further, the AC50 under setting [2] was 29.1 µM [rising, single point].

For the molecule `O=C(NC1CCCc2ccccc21)c1cccc(Br)c1` (configuration not stated), the cell number change was 15.3%. The AC50 under setting [2] is 7.31 µM [rising, partial curve].

With `CCOC(=O)CNC(=O)CSc1ccc(-c2nc3ccccc3[nH]2)cn1`, the cell number change is -1.4%.

Turning to `CN(C)c1ccc(P(=O)(OC2CCCCC2)C(Nc2ccccc2)c2cccnc2)cc1` (configuration not stated), the cell number change was 27.6%. In addition, the AC50 under setting [1] was 0.92 µM [rising, full curve, poor fit]. For the same molecule, under setting [2], the AC50 is 0.517 µM [rising, full curve].

On to `Cc1ccc(S(=O)(=O)N2CCC(C(=O)OCC(=O)N(C)c3ccccc3)CC2)cc1C`, for which the cell number change was -0.641%. Under setting [2], the AC50 was 25.9 µM [rising, partial curve].

In the case of `C=CCn1c(C)cc(C(=O)Cn2nc(C(=O)O)c3ccccc3c2=O)c1C`, the cell number change was -30.8%. Moreover, the AC50 under setting [1] was 0.092 µM [falling, full curve].

For the molecule `O=C1/C(=C\c2ccncc2)CCc2ccccc21`, the cell number change stood at 12.1%. In addition, the AC50 under setting [2] was 0.0651 µM [falling, full curve, poor fit].

`O=C(CNC(=O)c1cccc(F)c1)OCCOc1cccc(Cl)c1`: the cell number change was -4.04%.

`CC1CN(S(=O)(=O)c2cccc(C(=O)NCCCn3ccnc3)c2)CC(C)O1` (configuration not stated): the cell number change came to 109%. Besides, under setting [1], the AC50 was 16.4 µM [rising, partial curve, poor fit]. Besides, the AC50 under setting [2] is 0.58 µM [rising, single point].

In the case of `COC(=O)C(NC(=O)CCc1nnc2ccc(N3CCC(C)CC3)nn12)C(C)C` (configuration not stated), the cell number change turned out to be 15.8%. Under setting [2], the AC50 was 0.58 µM [falling, full curve, poor fit].

Consider `CCCCC1CCC(C(=O)N(CC(C)C)c2c(N)n(Cc3ccccc3)c(=O)[nH]c2=O)CC1` (configuration not stated), for which the cell number change was -49.1%. Moreover, under setting [1], the AC50 was 0.92 µM [falling, full curve]. In addition, under setting [2], the AC50 was 0.206 µM [falling, full curve, poor fit].

Consider `CCCCS(=O)CC(O)COc1ccc(C(C)(C)C)cc1` (configuration not stated), for which the cell number change is -11.3%. Also, the AC50 under setting [2] is 29.1 µM [rising, single point].

Turning to `COc1cccc(CN2CC(C(=O)N3CCN(c4ccc(Cl)cc4)CC3)CCC2=O)c1` (configuration not stated), the cell number change is 24.9%.

As to `COc1ccc(C(=O)N2CCCC(CCC(=O)N3CCN(c4ccccn4)CC3)C2)cc1` (configuration not stated), the AC50 under setting [2] was 29.1 µM [falling, single point].

What is called AC50 is the midpoint of the concentration-response curve, whichever way the signal moves. A higher AC50 goes with activity only at high concentration.
